# Results published in PubChem BioAssay AID434947 (Broad Institute, 2010).
# Hit rate of the full screen: of about 2,200 compounds, about 15 (0.7%) were called active.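 Rule for the calls: active = fitted half-maximal concentration for loss of luminescence signal no more than a set limit of log units above the top tested concentration; inconclusive = flat fit with 30 to 70% signal loss, or invalid fit; inactive = half-maximal concentration above that set limit.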 The list shows a part of the results.
# Assay: ADP-Glo luciferase signal interference – biochemical, luminescence, cell-free, homogeneous, artefact control for GSK3beta inhibitor project, dose response (AID 434947);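 note: kinase-free counter screen of ADP-Glo detection reagents for GSK3beta hits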
# Settings: Cell-free ADP-Glo reagents, 5 uM ADP
row,Structure (SMILES),EC50
1,CN1CCc2c(sc(NC(=O)Cc3ccc(F)cc3)c2C(N)=O)C1,inactive: > 30 µM
2,CCn1nc(NC(=O)c2cccs2)c2cc3ccccc3nc21,inactive: > 30 µM
3,Cc1cccc(N=Nc2c(C)c(C#N)c(O)[nH]c2=O)c1,inactive: > 30 µM
4,COc1c(CC=C(C)C)cc(C2CC(=O)c3c(O)cc(O)cc3O2)cc1CC=C(C)C (configuration not stated),inactive: > 30 µM
5,CC(=O)NCC1COc2ccccc2O1 (configuration not stated),inactive: > 30 µM
6,Cc1ccc(C)c(CSc2nnc(-c3cccnc3)o2)c1,inactive: > 30 µM
7,CC(C)(C)NC(=O)NC(=O)CSc1nncs1,inactive: > 30 µM
8,N#CCCn1cc(/C=N/O)c(-c2ccc(-c3ccccc3)cc2)n1,inactive: > 30 µM
9,CCN(CC)C(=O)COc1cc(C)cc2oc(=O)cc(-c3ccccc3)c12,inactive: > 30 µM
10,CN(C(=O)CSc1nnc(-c2c[nH]c3ccccc23)o1)C1CCS(=O)(=O)C1 (configuration not stated),inactive: > 30 µM
11,COc1cccc(C(=O)Nc2nc(C)cs2)c1,inactive: > 30 µM
12,Cc1c(Cl)cccc1Nc1ccccc1C(=O)O,inactive: > 30 µM
13,COc1ccc(N2CCN(CC(O)COc3c(OC)cccc3OC)CC2)cc1 (configuration not stated),inactive: > 30 µM
14,Cc1cc(C)c(NC(=O)c2ccc(S(=O)(=O)N3CCOCC3)cc2)c(C)c1,inactive: > 30 µM
15,CC1CCCCN1c1ncnc(N)c1[N+](=O)[O-] (configuration not stated),inactive: > 30 µM
16,CNCCCOc1cc(C)cc(C)c1C,inactive: > 30 µM
17,Cc1ccccc1CSc1ccc2nnc(-c3ccccn3)n2n1,inactive: > 30 µM
18,O=C(CC1NCCNC1=O)Nc1cc(Cl)cc(Cl)c1 (configuration not stated),inactive: > 30 µM
19,CN1CCc2c(sc3c2c(=O)n(-c2cccc(Cl)c2)c2nncn32)C1,inactive: > 30 µM
20,Cc1ccc(-n2c(N)c(C(=O)NCc3cccnc3)sc2=S)cc1,inactive: > 30 µM
21,C=CCn1c(SCC(=O)Nc2ccc(Cl)cn2)nnc1C1CC1,inactive: > 30 µM
22,CC1=C(C(=O)OC(C)C)C(c2c[nH]c3ccccc23)n2ncnc2N1 (configuration not stated),inactive: > 30 µM
23,O=C(NC1CCC(C(=O)O)CC1)OCc1ccccc1 (configuration not stated),inactive: > 30 µM
24,COc1ccc(Oc2c(C)oc3c(CN(C)C)c(O)ccc3c2=O)cc1,inactive: > 30 µM
25,COc1ccc(C(=O)O/N=C(\C)c2ccccc2)cc1,active: 24 µM

row,Structure (SMILES),EC50
1,CCCN1CCN(CCCNC(=O)c2ccc3c(c2)NC(=O)c2ccccc2S3)CC1,inactive: > 30 µM
2,CC1Cc2cc(S(=O)(=O)N3CCN(c4ccccc4)CC3)ccc2N1C(=O)C1CC1 (configuration not stated),inactive: > 30 µM
3,COCCN1C(=O)N[C@@H](c2cccc(C(F)(F)F)c2)[C@H](C(C)=O)[C@H]1C,inactive: > 30 µM
4,Fc1ccccc1Cn1c2[n+](c3ccc(C(F)(F)F)cc31)CCCCC2,inactive: > 30 µM
5,CC(C)Nc1nc(-c2cccnc2)nc(-c2ccccc2)c1C#N,inactive: > 30 µM
6,CCOc1cc(/C=N/N=C(N)N)ccc1OCc1ccc(Cl)cc1,inactive: > 30 µM
7,CC(C)CCSc1nnc(N)s1,inactive: > 30 µM
8,Cc1cccc(Nc2nc(NCc3ccco3)nc(N)c2[N+](=O)[O-])c1,inactive: > 30 µM
9,O=C(Nc1ncc(Cc2ccccc2Cl)s1)C1CCCO1 (configuration not stated),inactive: > 30 µM
10,Nc1nc(NCc2ccccc2)nc(Nc2ccc(F)cc2)c1[N+](=O)[O-],inactive: > 30 µM
11,Nc1nc(NCC2CCCO2)nc(Nc2ccccc2)c1[N+](=O)[O-] (configuration not stated),inactive: > 30 µM
12,Cc1ccc(NC(=O)CSc2nccn2C)cc1F,inactive: > 30 µM
13,CC1(C)CC(=O)C2=C(C1)NC1=C(C(=O)c3ccccc31)C2c1ccc(O)cc1 (configuration not stated),inactive: > 30 µM
14,CCCn1nc(NC(=O)c2cccs2)c2cc3ccccc3nc21,inactive: > 30 µM
15,O=c1oc(-c2cccs2)nc2sc3c(c12)CCCCC3,inactive: > 30 µM
16,CCOC(=O)c1nnn(-c2nc(OC)nc(N3CCCC3)n2)c1-c1ccccc1,inactive: > 30 µM
17,CC1=C(C(N)=O)C(c2sccc2C)n2nnnc2N1 (configuration not stated),inactive: > 30 µM
18,O=C1Nc2ccccc2Nc2ccc([N+](=O)[O-])cc21,inactive: > 30 µM
19,O=C1Nc2ccccc2C1=Nc1cccc([N+](=O)[O-])c1,inactive: > 30 µM
20,CCOC(=O)COc1ccc(C(=O)c2ccccc2)c(O)c1,inactive: > 30 µM
21,Nc1ncnc2c1ncn2C1OC(CO)C(O)C1O (configuration not stated),inactive: > 30 µM
22,CC1=C(C(=O)Nc2ccccc2F)C(c2ccsc2)C2=C(CC(C)(C)CC2=O)N1 (configuration not stated),inactive: > 30 µM
23,Nc1nonc1-n1nnc(C(=O)N/N=C/c2cc(Cl)ccc2O)c1CN1CCCCCC1,inactive: > 30 µM
24,COCCNC(=O)c1ccc(Cl)c(Cl)c1,inactive: > 30 µM
25,N#Cc1c(-c2cccs2)nc(SCc2ccc(Cl)cc2)[nH]c1=O,inactive: > 30 µM

# Entries from the list above containing a CF3 group:
row,Structure (SMILES),EC50
3,COCCN1C(=O)N[C@@H](c2cccc(C(F)(F)F)c2)[C@H](C(C)=O)[C@H]1C,inactive: > 30 µM
4,Fc1ccccc1Cn1c2[n+](c3ccc(C(F)(F)F)cc31)CCCCC2,inactive: > 30 µM

# Going on with the list:

row,Structure (SMILES),EC50
1,O=c1cc(-c2ccccc2)c2ccc(O)cc2o1,inactive: > 30 µM
2,CCc1ccccc1NC(=O)CSc1nnc(-c2ccncc2)o1,inactive: > 30 µM
3,c1ccc(CCNCC2COc3ccccc3O2)cc1 (configuration not stated),inactive: > 30 µM
4,Cc1c(O)ccc2c(-c3ccccc3)cc(=O)oc12,inactive: > 30 µM
5,CCn1c(SCC(=O)Nc2ccc(Cl)cc2)nnc1C1CC1,inactive: > 30 µM
6,CC(/C=C/c1ccccc1F)=N\NC(=O)C(C)C,inactive: > 30 µM
7,OC1(C#CCN2CCOCC2)CCCCC1,inactive: > 30 µM
8,COc1cc2ncnc(Nc3ccc4c(c3)OCO4)c2cc1OC,inactive: > 30 µM
9,O=[N+]([O-])c1ccc(-n2nnnc2-c2ccccc2)c([N+](=O)[O-])c1,inactive: > 30 µM
10,O=C(CSc1ccc2nnc(-c3cccs3)n2n1)N1CCCC1,inactive: > 30 µM
11,CC[n+]1c(/C=C/N(C)c2ccccc2)oc2ccccc21,inactive: > 30 µM
12,CCn1cc(CN2CCC(n3nccc3NC(=O)CCCc3ccccc3)CC2)cn1,inactive: > 30 µM
13,COc1ccc2oc3cc(C)[n+]([O-])c(-c4ccc(Br)cc4)c3c2c1,inactive: > 30 µM
14,CN(C)CCCNc1nc(N)c([N+](=O)[O-])c(NCc2ccccc2)n1,inactive: > 30 µM
15,C/C(=N\NC(=S)Nc1c(C)cccc1C)c1cc2ccccc2o1,inactive: > 30 µM
16,COc1ccc(-n2nc3c(N)n[nH]c3cc2=O)cc1,inactive: > 30 µM
17,O=C(Nc1cccnc1)c1sc(Nc2ccccc2)nc1-c1ccccc1,inactive: > 30 µM
18,Fc1cccc(Cl)c1CSc1nnc(-c2ccncc2)o1,inactive: > 30 µM
19,CCOC(=O)c1c(C)[nH]c(C(=O)CSc2nccc(C)n2)c1C,inactive: > 30 µM
20,COc1ccc2cc(C(N)=O)/c(=N/NC(=O)c3ccco3)oc2c1,inactive: > 30 µM
21,CCOC(=O)c1ccc(NC(=O)CSc2nnc(C3CC3)n2CC)cc1,inactive: > 30 µM
22,Cc1ccc(NC2=CC(=O)CC(C)(C)C2)cc1F,inactive: > 30 µM
23,Cc1ccccc1-c1nnc(SCc2ccc(F)cc2)o1,inactive: > 30 µM
24,Oc1ccc(N2CCN(C(=S)NCCc3ccccc3)CC2)cc1,inactive: > 30 µM
25,O=C1C(=O)N(c2ccccn2)C(c2ccc(Br)cc2)/C1=C(/O)c1ccc(Br)cc1 (configuration not stated),inactive: > 30 µM

# Structures listed so far that have a COOH group, in the order listed:
row,Structure (SMILES),EC50
12,Cc1c(Cl)cccc1Nc1ccccc1C(=O)O,inactive: > 30 µM
23,O=C(NC1CCC(C(=O)O)CC1)OCc1ccccc1 (configuration not stated),inactive: > 30 µM

# The results go on.

row,Structure (SMILES),EC50
1,Cc1ccc(Nc2nc(N)c([N+](=O)[O-])c(NCc3ccccc3)n2)cc1,inactive: > 30 µM
2,CNc1nc(-c2ccccc2)nc(-c2ccccc2)c1C#N,inactive: > 30 µM
3,Cc1cc(C)n2nc(SCC(=O)N(CC(C)C)c3c(N)n(CC(C)C)c(=O)[nH]c3=O)nc2n1,inactive: > 30 µM
4,Cc1sc2ncnc(N3CCCCC3C)c2c1C (configuration not stated),inactive: > 30 µM
5,CSc1ncc(C(=O)Nc2ccccc2C)c(C)n1,inactive: > 30 µM
6,CC(C)CC(CO)N1CCN(C(=O)c2ccc(Cl)c(Cl)c2)CCC1=O (configuration not stated),inactive: > 30 µM
7,CN(C)c1ccc(-c2nc3ccccc3n2C)cc1,inactive: > 30 µM
8,O=C(COC(=O)C1CCN(S(=O)(=O)c2ccccc2)CC1)NC(=O)c1ccc(OC(F)F)cc1,inactive: > 30 µM
9,CCN(CC)Cc1c(C(=O)N/N=C/c2ccc(C)o2)nnn1-c1nonc1N,inactive: > 30 µM
10,Cc1ccc(C(=O)c2coc3ccc(OCC(=O)O)cc23)cc1,inactive: > 30 µM
11,Cc1[nH]c2ccccc2c1Cc1nnc(SCC(N)=O)o1,inactive: > 30 µM
12,Oc1ccc(-c2nncn2-c2ccccc2)cc1,inactive: > 30 µM
13,O=C1NC(=Nc2ccccc2)S/C1=C\c1ccccc1,inactive: > 30 µM
14,CNc1nc(N)nc(-c2cc(Cl)ccc2OC)n1,inactive: > 30 µM
15,NC(=O)CSc1nnc(COc2ccc3ccccc3c2)o1,inactive: > 30 µM
16,CCOC(=O)C(C)Sc1ccc2nnc(-c3ccc(F)cc3)n2n1 (configuration not stated),inactive: > 30 µM
17,O=C1CN(c2nc(-c3cccnc3)nc3sc4c(c23)CCCC4)CCN1,inactive: > 30 µM
18,Cc1nc2[nH]c(=O)c3c(n2n1)NC1=C(C(=O)CC(C)(C)C1)C3c1ccccc1 (configuration not stated),inactive: > 30 µM
19,Cc1c(C=Nc2ccc(S(=O)(=O)N(C)C)cc2)c(O)[nH]c(=O)c1C#N,inactive: > 30 µM
20,Cc1ccc(N2CCN(C(=O)N3CCOCC3)CC2)c(C)c1,inactive: > 30 µM
21,CN(C)c1nc(-c2ccccc2)nc(-c2ccc(Cl)cc2)c1C#N,inactive: > 30 µM
22,CC1=C(C#N)C(c2ccc(O)cc2)C2=C(CC(C)(C)CC2=O)N1 (configuration not stated),inactive: > 30 µM
